Consider 71 molecules from ChEMBL document CHEMBL4296182, “CO-ADD screening of NIH NCI Diversity Set V”.

Structures are written as SMILES. The list shows a part of the results. Entries with a potency or affinity are not part of this list.

This assay relates to Pseudomonas aeruginosa. To be noted: Concentration 20 uM; ASSAY_TEST Inhibition of Bacterial Growth; detection method Absorption (OD600); MEDIA CAMHB; plate type 384well; NBS; CORNING #3640; time 18 hr.
The term Inhibition denotes the change of the read-out against control, counted positive when it falls. `Nc1cc(O)nc2ncnn12`: the Inhibition turned out to be 28.76%.

`Nc1ccc(C(=O)Nc2ccc(Nc3ccncc3)cc2)cc1`: the Inhibition is reported as -9.37%.

For the molecule `O=[N+]([O-])c1c(N2CCN(CCO)CC2)nc2ccccn12`, the Inhibition came to 4.24%.

For the molecule `c1ccc(-n2ncc3cccnc32)cc1`, the Inhibition is recorded as 0.98%.

For `O=C(O)CCC(=O)c1ccc2ccc3cccc4ccc1c2c34`, the Inhibition is 20.58%.

`Cc1ccn2c(C(C)O)nnc2c1` (stereo unspecified): the Inhibition amounted to 15.75%.

Consider `Cl.Nc1ncnc2c(C3OC(CO)C(O)C3O)c[nH]c12` (stereo unspecified), for which the Inhibition is -10.08%.

For `O=C1CCC(c2ccccc2)(c2ccccc2)CC1`, the Inhibition was -4.44%.

As for `CC1CC(C)(C)C2=NCCN21` (stereo unspecified), the Inhibition was found to be 6.11%.

With `Clc1ccc(-c2nc(-c3cc4cc(Cl)ccc4o3)cs2)cc1`, the Inhibition turned out to be 29.69%.

As for `C[C@]12CC[C@H](O)CC1=CC[C@@H]1[C@@H]2CC[C@]2(C)c3n[nH]cc3C[C@@H]12`, the Inhibition amounted to 8.33%.

For the molecule `O=C(COc1ccc([N+](=O)[O-])cc1Cl)N1CCOCC1`, the Inhibition amounted to 24.08%.

Regarding `Nc1ccc(C(=O)Nc2cccc(N)c2)cc1`, the Inhibition worked out at 4.25%.

Regarding `COc1cc(Cl)c(CC(=O)c2c[nH]c3ccccc23)cc1OC`, the Inhibition is reported as 10.74%.

Consider `COc1c(C=O)c2c(c(OC)c1OC)-c1ccc(OC)c(=O)cc1[C@@H](NC(C)=O)CC2`, for which the Inhibition turned out to be 19.46%.

Consider `CCN(CC)Cc1cc2[nH]c3c4ccc(Cl)cc4ncc3c2cc1OC`, for which the Inhibition amounted to 29.68%.

As for `CCCCN1C(=O)CC(C(=O)OCC)=C1C`, the Inhibition is given as -2.02%.

For `CN(C)S(=O)(=O)N1C(=O)c2ccccc2C1=O`, the Inhibition is recorded as -0.85%.

For `CSc1ccc(NC(=O)Nc2cc(C)ccn2)cc1`, the Inhibition was found to be 22.75%.

Regarding `Cc1nc(N)nc(Nc2ccc(C#N)cc2)c1Br`, the Inhibition worked out at 14.08%.

On to `CCCCn1cnc2c(S)nc(N)nc21`, for which the Inhibition was -14.98%.

Turning to `C=C1S/C(=N\c2c(C)cccc2Cl)N(C(=O)c2sc3ccccc3c2Cl)C12CCCCC2`, the Inhibition is reported as -6.03%.

Take `O=C(O)C(Cc1ccccc1N(CCO)CCO)N1C(=O)c2ccccc2C1=O` (stereo unspecified): the Inhibition worked out at 21.43%.

`O=[N+]([O-])c1ccccc1/C=C/C=N/N=C/c1ccccc1O`: the Inhibition worked out at 14.78%.

On to `Nc1ccc(Oc2ccc(N)c([N+](=O)[O-])c2)cc1[N+](=O)[O-]`, for which the Inhibition is listed as 6.41%.

Take `Cc1ccc(NC(=S)NC(=O)c2ccccc2)cc1NC(=S)NC(=O)c1ccccc1`: the Inhibition was determined as 19.52%.

For the molecule `Oc1ccnc2c(Cl)cccc12`, the Inhibition was -8.65%.

In the case of `O=C(OCC(O)COC(=O)c1cccnc1)c1cccnc1`, the Inhibition was 12.36%.

As for `Cn1c(=O)c2nc(N3CCCCC3)[nH]c2n(C)c1=O`, the Inhibition is reported as 6.33%.

Consider `CCOC(=O)C(=O)C1C(=O)Nc2ccccc21` (stereo unspecified), for which the Inhibition is listed as 0.76%.

For the molecule `c1ccc(-c2nc(-c3nccc4ccccc34)oc2-c2ccccc2)cc1`, the Inhibition is -11.23%.

As to `NC(=O)N/N=C1\CC2CC1C1C=CCC21` (stereo unspecified), the Inhibition amounted to 29.96%.

Turning to `CC(=O)Oc1ccc(OC(C)=O)c2c1CC1(C)OC1(C)C2` (stereo unspecified), the Inhibition is 11.45%.

For the molecule `COc1cc(NC(=O)CCl)ccc(=O)c1`, the Inhibition was determined as 6.38%.

As to `O=C1c2ccccc2C2=C3C(O)=NN=C3CCN12`, the Inhibition came out at 5.07%.

As for `NC(=O)CCC(C(=O)O)N1C(=O)c2ccc(O)cc2C1=O` (stereo unspecified), the Inhibition is reported as -3.18%.

Turning to `CC(C)(C)c1ccc(C(=O)N2CCOC23CCCCC3)cc1`, the Inhibition worked out at 14.96%.

`CCNc1ccccc1C(=O)O`: the Inhibition is given as 23.54%.

Consider `CC(C)(C)c1ccc(NS(=O)(=O)c2ccc(N)cc2)cc1`, for which the Inhibition amounted to 8.53%.

For the molecule `CC1(C)OC2CC(=O)OCC23C1CC(=O)C1(C)C3CCC2(C)C(c3ccoc3)OC(=O)C3OC321` (stereo unspecified), the Inhibition is reported as 19.35%.

Consider `O=C(Nc1ccc(F)cc1)OCCOc1ccc([N+](=O)[O-])cc1`, for which the Inhibition is given as -7.63%.

With `COc1ccc(NC2=NC(C)(CO)CS2)cc1` (stereo unspecified), the Inhibition is listed as 9.26%.

With `O=C(C=C=Nc1ccccc1)C(=O)N=C=Cc1ccccc1`, the Inhibition was found to be 4.16%.

Regarding `Cc1nn(-c2ccccc2)nc1C(=O)Nc1ccc2[nH]ncc2c1`, the Inhibition came to 25.68%.

In the case of `OCc1cc(O)c(CO)nn1`, the Inhibition is listed as -19.75%.

As to `COc1cc(OC)c2c(=O)cc(-c3cccnc3)oc2c1`, the Inhibition is 1.56%.

As to `COc1ccc(Nc2cc(Cl)ccc2C(=O)O)cn1`, the Inhibition stood at 3.25%.

`COc1cc(NC(C)=O)c2ncccc2c1NC(C)=O`: the Inhibition is reported as -13.16%.

Take `O=c1c(O)cccc2cc(O)c(O)c(O)c12` [PURPUROGALLIN]: the Inhibition was determined as 13.67%.

On to `CCOC(=O)c1ccc2c(c1)NCc1cccc(OC)c1O2`, for which the Inhibition turned out to be 12.01%.

Consider `CCN(CC)CCNC(=O)c1ccc(NCN2C(=O)NC(c3ccccc3)(c3ccccc3)C2=O)cc1`, for which the Inhibition was 12.58%.

Regarding `Cc1nc(SCC(=O)O)n[nH]1` [TIAZOTIC ACID], the Inhibition came to 13.36%.

Regarding `Cn1c(=O)c2c(nc(N3CCOCC3)n2C)n(C)c1=O`, the Inhibition was 11.44%.

As for `CCOC(=O)Nc1csnn1`, the Inhibition is reported as 18.96%.

Consider `Cc1cc(NC(=O)Nc2cccc3ccccc23)no1`, for which the Inhibition came to 6.83%.

As for `O=C(Nc1ccc(Nc2ccncc2)cc1)c1ccc([N+](=O)[O-])cc1`, the Inhibition is listed as 26.85%.

As to `COc1ccc(NC2=CC(=S)NC(C)(C)C2)cc1`, the Inhibition came to 17.53%.

As for `CC(=O)[C@H]1CC[C@H]2[C@@H]3CCC4=CC(=O)CC[C@]4(C)[C@@]3(F)[C@@H](O)C[C@]12C`, the Inhibition stood at 23.06%.

As for `COc1ccccc1/C=C1\Cc2ccccc2C1=O`, the Inhibition was -8.15%.

Turning to `O=[N+]([O-])C1C(c2ccccc2)C12c1ccccc1-c1ccccc12` (stereo unspecified), the Inhibition is 23.23%.

With `O=c1n(CC2CO2)c(=O)n(CC2CO2)c(=O)n1CC1CO1` (stereo unspecified) [TEROXIRONE], the Inhibition was found to be 7.38%.

With `Cc1cc2c(cc1C)N(C(=O)CCl)CC(=O)N2`, the Inhibition is -0.8%.

Consider `NCC(=O)c1cccc2ccc[n+]([O-])c12`, for which the Inhibition is 1.7%.

With `CSc1nsc(NN)n1`, the Inhibition is listed as 9.86%.

Turning to `Nc1nc(O)c2ncn(C3CCCC3)c2n1`, the Inhibition amounted to 22.89%.

In the case of `CC(C)(C(N)=O)c1ccccc1`, the Inhibition amounted to 20.96%.

With `CC(C)(C)n1nc(C2CC2)cc1NC(=O)Nc1ccc(Cl)cc1`, the Inhibition is recorded as -8.59%.

As for `Cc1cnc2cc(Cl)ccc2c1SCC(=O)O`, the Inhibition is 3.5%.

`Sc1nc2c[nH]c(S)nc-2n1`: the Inhibition worked out at 21.47%.

Turning to `Cc1cn(C2CC(O)C(CO)O2)c(=O)n(Cc2ccccc2)c1=O` (stereo unspecified), the Inhibition turned out to be 30.46%.

Regarding `CCCCCc1cc(O)nc(S)n1`, the Inhibition turned out to be 2.45%.
